According to patent EP4711368A1 (priority 2023, dated 2024):
At least one compound was matched to its structure with a doubt left.

System: SD rats
Settings: rat, in vivo, iv
Note: test concentration or dose not given here.

CCC(=O)OCCC1N=C(c2ccccn2)c2cc(Br)ccc2-n2c(C)cnc21 (stereo not shown) [Compound 147]
Righting feflex duration: 7.2-11. 8
